Binding data for one molecule are collected here from PMC8406200, “SAMase of Bacteriophage T3 Inactivates Escherichia coli’s Methionine S-Adenosyltransferase by Forming Heteropolymers” (mBio, 2021).

The assay has as its target Neisseria gonorrhea MAT (Neisseria gonorrhea). In words: dynamic light scattering; 2.85 μM MAT and 11.4 μM SAMase (1:4 ratio), Tris pH 8.0, 150 mM KCl, 1 mM DTT, 500 μM SAM, preincubated 30 min at room temperature; both purified.

These are yes or no findings as the source states them, for the method shown. Tags and fused reporters may be left off the sequences shown.

B1: S-Adenosylmethionine lyase (SAMase) of bacteriophage T3, C-terminal His-tagged (enzyme)
chain: MIFTKEPAHVFYVLVSAFRSNLCDEVNMSRHRHMVSTLRAAPGLYGSVESTDLTGCYREAISSAPTEEKTVRVRCKDKAQALNVARLACNEWEQDCVLVYKSQTHTAGLVYAKGIDGYKAERLPGSFQEVPKGAPLQGCFTIDEFGRRWQVQ
notes: S-adenosylmethionine lyase (SAMase) of bacteriophage T3, UniProt P07693; gene synthesized de novo with six His codons at the 3' end; anticipated monomer size around 17 kDa; Dimer by SEC, cross-linking and cryo-EM; also called T3 SAMase; 6×His-tagged SAMase; not shown: His6, C-terminal, kept
For the molecule B1, the binding result is “no binding (tested: 2.85 μM MAT and 11.4 μM SAMase)”.
